Patent publication US12447171B2 (CELGENE QUANTICEL RESEARCH, INC., priority 2019, dated 2025)
For some assays here: The name of at least one read-out is uncertain. For some assays here: For at least one compound, name, drawing or mass did not settle the structure. Some compounds share one wording; it may come from a single statement. Some results were stated once for a whole list of compounds, not compound by compound.

Assays:
[1] = system: MOLM-13 xenograft model; assay: Disseminated MOLM-13 xenograft survival study; type: in vivo, mice; conditions: single agent midostaurin, gilteritinib or venetoclax PO qd×21
Experimental: (§1) LEED models oral administration of AZA, while HELD models intravenous or subcutaneous administration of AZA.
The animals were fed ad libitum water (reverse osmosis, 1 ppm Cl), and NIH 31 Modified and Irradiated Lab Diet® consisting of 18.0% crude protein, 5.0% crude fat, and 5.0% crude fiber. The mice were housed on irradiated Enrich-o'cobs™ Laboratory Animal Bedding in static microisolators on a 12-hour light cycle at 20-22° C. (68-72° F.) and 40-60% humidity.
On each day of dosing, an appropriate amount of gilteritinib was dissolved in 0.5% methylcellulose in DI water to yield a dosing solution at 0.4 mg/mL. […]
(§2) Animals were monitored individually for an endpoint of moribundity due to progression of the leukemia. […] The time to endpoint (TTE), in days, was recorded for each mouse that died of its disease or was euthanized due to extensive tumor progression. […] The median TTE value was calculated for each group. The median TTE of treated mice was expressed as a percentage of the median TTE of the control mice (% T/C), and the increase in life span (ILS) was calculated as: ILS=% T/C−100%, where T=median TTE treated, and C=median TTE control. […]
Animals were weighed daily on Days 1-5, then twice per week until the completion of the study. […] Individual body weight loss was monitored as per protocol and any animal that exceeded the limits for acceptable body weight loss was euthanized. […]

[2] = system: MV4-11 xenograft models; assay: Disseminated MV4-11 xenograft survival study; type: in vivo, mice; conditions: single agent venetoclax or midostaurin
Experimental: as §1
On each day of dosing, an appropriate amount of gilteritinib was dissolved in 0.5% methylcellulose in DI water to yield a dosing solution at 0.4 mg/mL. Each week, an appropriate amount of venetoclax was dissolved in 10% ethanol:30% PEG400:60% phosal 50 propylene glycol to yield a dosing solution at 10 mg/mL. […] Each test mouse received 5×10^6 MOLM-13 cells or 10^7 MV4-11 cells (0.2 mL cell suspension) by tail vein injection. Dosing was initiated three days after tumor cell inoculation, which was designated as Day 1 of the study. […] Vehicle was administered both IP and PO. […]
as §2
Animals were weighed daily on Days 1-5, then twice per week until the completion of the study. […] Group mean body weight loss also was monitored as per protocol. […]

[3] = system: 22 AML cell lines; assay: Cell viability assay, single agents and 5-azacytidine-venetoclax combination, AML cell line panel

Structure (SMILES)	survival compared to vehicle alone [1]	survival compared to vehicle alone [2]	EC50 ([3]; read-out: EC50 (single agent cytotoxicity), 3 cell lines sensitive to AZA and CC-90011 but not venetoclax, 10 μM = maximum concentration used) [µM]	cell lines sensitive to venetoclax (EC50<10 μM) ([3]; single agent, number of 22 AML cell lines)
CCc1nc(C(N)=O)c(Nc2ccc(N3CCC(N4CCN(C)CC4)CC3)c(OC)c2)nc1NC1CCOCC1 [Gilteritinib]	significantly increased survival			
CC1(C)CCC(CN2CCN(c3ccc(C(=O)NS(=O)(=O)c4ccc(NCC5CCOCC5)c([N+](=O)[O-])c4)c(Oc4cnc5[nH]ccc5c4)c3)CC2)=C(c2ccc(Cl)cc2)C1 [Venetoclax]	significantly increased survival	significantly increased survival	> 10	11/22
